Primary screen of a compound library

The chains behind the UniProt entries cited, without tags or fusion partners.
UniProt E9BF75, entry or part of it: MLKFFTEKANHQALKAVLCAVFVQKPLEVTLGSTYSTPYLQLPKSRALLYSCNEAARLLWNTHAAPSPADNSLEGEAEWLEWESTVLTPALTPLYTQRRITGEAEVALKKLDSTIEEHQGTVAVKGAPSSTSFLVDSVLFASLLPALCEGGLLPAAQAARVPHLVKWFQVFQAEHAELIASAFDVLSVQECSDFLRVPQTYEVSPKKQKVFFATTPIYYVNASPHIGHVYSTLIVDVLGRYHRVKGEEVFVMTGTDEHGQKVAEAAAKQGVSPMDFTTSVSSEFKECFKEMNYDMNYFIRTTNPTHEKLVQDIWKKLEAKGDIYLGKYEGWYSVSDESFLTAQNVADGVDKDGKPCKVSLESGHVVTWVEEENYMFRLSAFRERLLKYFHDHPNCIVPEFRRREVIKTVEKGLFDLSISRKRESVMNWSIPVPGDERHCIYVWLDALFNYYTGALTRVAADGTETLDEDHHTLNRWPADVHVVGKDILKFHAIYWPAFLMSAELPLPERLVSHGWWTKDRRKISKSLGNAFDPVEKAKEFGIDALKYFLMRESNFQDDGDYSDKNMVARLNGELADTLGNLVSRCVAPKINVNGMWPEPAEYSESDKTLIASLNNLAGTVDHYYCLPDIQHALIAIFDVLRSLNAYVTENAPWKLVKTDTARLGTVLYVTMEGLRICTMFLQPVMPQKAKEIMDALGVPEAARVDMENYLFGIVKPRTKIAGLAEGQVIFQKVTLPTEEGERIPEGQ

From ChEMBL document CHEMBL3988442, “University of Dundee, Small-Polar-MMV Screening Library” (2021).

A: 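Primary screen of methionyl-tRNA synthetase; the read-out is not stated. Target: Methionyl-tRNA synthetase (putative), Leishmania donovani (UniProt E9BF75). The test concentration is not given. Values are per cent inhibition. About 68,000 compounds were tested under these conditions; 0.035% (about 24) showed 50% or more at least once.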
B: 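Assay on Mycobacterium tuberculosis, filed only as a heat shock assay from Cornell; the read-out is not stated. The concentration is filed as 10 mM, unlikely as a test dose, so the dose is not known. Higher reads as stronger inhibition (inferred: compounds with an IC50 in retests scored well above the rest). About 69,000 compounds were tested under these conditions; 1.4% (about 930) showed 50% or more at least once.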

Results are percentages, as filed.
How 0% and 100% were set is not recorded. Most values in the screen are low, and negative values occur.
Compounds were drawn at random from those tested, without regard to their results.
A dash means the value is not listed here; it may have been measured.

compound	A	B
CN(C)C(=O)CN1C[C@H]2CCN(C(=O)C3CCCO3)CC[C@H]2S1(=O)=O (stereo partly specified)	11.96	-
CC(=O)OCc1ccc(CN2CCCCCC2c2cc(C)no2)o1 (stereo unspecified)	2.581	26.27
CN(C)C(=O)N[C@@H]1CN(S(C)(=O)=O)[C@@H]2CCCO[C@@H]21	0.346	-
COc1ncccc1C(=O)NCCn1cnc(C)cc1=O	12.15	-4.246
c1ccc(-c2cccc(N3CCC(NCCc4cscn4)CC3)c2)cc1	11.04	9.178
O=C(O)C1(Oc2ccccc2)CCN(c2ccncc2)CC1	18.06	11.43
[H][C@@]12C[C@H](c3nnc(C)o3)O[C@@]1([H])CCN(Cc1cc(C)on1)C2	-	39.48
N#CC1(c2ccccc2)CCN(C(=O)CN2C(=O)CCNC2=O)CC1	14.71	-2.266
CO[C@@H]1CCN(C(=O)Cc2ccsc2)[C@H]1Cc1cccnc1.O=C(O)C(F)(F)F	-	5.874
O=C(c1ncn2c1CNS(=O)(=O)c1ccccc1-2)N1CC=CC1	7.317	-7.813
CC(C)c1n[nH]c(C2CN(C(=O)c3cc(Cl)c[nH]3)CCO2)n1 (stereo unspecified)	10.86	1.225
Cc1nc(C)n(C2CCCN(C(=O)c3cccnc3NC(C)C)C2)n1 (stereo unspecified)	10.65	10.61
O=C(c1ccccc1)N1CC[C@H]2C[C@H](c3nccs3)O[C@@H]2C1	25.65	-
OCc1csc(N2CCCC(COc3cccc(F)c3)C2)n1 (stereo unspecified)	17.48	-18.57
O=C(c1cc(Cl)c2c(c1)OCO2)N1CCCC(n2ccnc2)C1 (stereo unspecified)	16.78	4.19
O=C(c1ccc[nH]1)N1C[C@H]2CC[C@@H]1CN(C1Cc3ccccc3C1)C2	18.96	-
CC(C)c1ncc(-c2cc(C3CCC3)nc(N)c2C#N)cn1	18.05	10.8
Nc1nc2c(c(N3CCOCC3)n1)CCN(C(=O)c1ccc[nH]1)CC2	17.48	8.599
CCC[C@@H]1CN(C(=O)c2c(F)ccc(C)c2Cl)C[C@H]1C(=O)O	8.791	5.446
Cc1cc(C(=O)N2CCCC3(COCCN(c4ncccn4)C3)C2)[nH]n1 (stereo unspecified)	15.22	-
CCCNS(=O)(=O)c1ccc(C(=O)NC(CC)c2cnn(C)c2)cc1 (stereo unspecified)	9.749	-2.796
COCCC(=O)N1CCC(c2cc(O)n(C)n2)C1 (stereo unspecified)	9.896	9.695
CCn1cncc1-c1nc2c([nH]1)CC(C)(C)CNC2=O	-19.13	-15.09
CC(=O)N1CCCC(c2ccc(N3CCN(C)CC3)cn2)C1 (stereo unspecified)	6.472	-12.24
CCn1c(NCc2cccnc2)nc2c(C)nn(C)c2c1=O	18.84	0.9296
Cc1cnn(CC2CCCCN2C(=O)c2cnc3n[nH]c(C)c3c2)c1 (stereo unspecified)	20.22	-25.43
CC(C)c1ocnc1C(=O)N1CCCC(c2ccn[nH]2)C1 (stereo unspecified)	0.8065	5.382
Cc1ncc2c(n1)CCN(C(=O)Cc1c(C)noc1C)C2	8.661	2.173
CC(=O)N1CCCc2ccc(S(=O)(=O)N3CCCCC3C)cc21 (stereo unspecified)	11.82	0.9007
CCc1cc(NCCCc2nc(C)no2)nc(-c2ccncc2)n1	8.659	-22.2
COc1ccccc1COCC(O)CN1CCC(c2ccn[nH]2)CC1 (stereo unspecified)	17.18	0.774
CC1CCCN(Cc2c(C3CC3)n(CC(=O)N(C)C)c3ncccc23)C1.Cl (stereo unspecified)	-	-6.615
Fc1cc(CN2CCOC3(CCOCC3)C2)ccc1Cl	7.444	4.102
Cc1ccnn1CCC(=O)N1CCCC[C@]2(C)NC(=O)CCC[C@H]12	7.937	-
Cn1ccnc1CN1CCC(c2nc3ccccc3n2C)CC1	3.736	-17.91
CC[C@@H](C)[C@@H](N)C(=O)Nc1cccc(-c2cnc(N(C)C)nc2)c1	14.32	16.68
O=C(c1c[nH]cn1)N1CCOCC2(C1)CN(c1ccccc1)C(=O)CO2 (stereo unspecified)	4.11	-
O=C(CC1CCN(c2cccnn2)CC1)NC1CCOCC1	3.492	-8.333
CCOCc1ccc(CNC2=NCCCN2)cc1.I	-	6.72
COCCS(=O)(=O)NC(C)c1cccc(C)c1C (stereo unspecified)	8.355	-10.36
Cc1cc(CN2CCC(C3CCN(Cc4cccnc4)CC3)C2)[nH]n1 (stereo unspecified)	19.03	-100.6
CC(Cc1ccccn1)N(C)Cc1ccc2c(c1)CCO2 (stereo unspecified)	5.852	9.368
c1cnc(N2CCCC(c3csc(Nc4cnccn4)n3)C2)nc1 (stereo unspecified)	9.119	-7.961
CCc1nnsc1C(=O)NC1CCN(CCOc2ccc(Br)cc2)CC1	13.02	23.09
CC(=O)NCc1ccc(C(=O)N2CCCC(n3cncn3)C2)o1 (stereo unspecified)	8.685	-30.9
CC(C)(CNC(=O)c1ccc(Cl)o1)NC(=O)OC(C)(C)C	6.344	-136.1
CC1(c2ccc(Br)cc2)CC(=O)N(CCC#N)C1=O (stereo unspecified)	6.269	0.3262
CC(C)NC(=O)NCCCOC1CCOCC1	18.09	21.17
COc1c(CNCc2cccc(CN3CCOCC3)c2)c(C)nn1C	9.091	-4.733
Cn1nc(C2CCN(C(=O)c3cnccn3)C2)cc1CCO (stereo unspecified)	13.65	-6.125
CN(C)c1ncccc1CN1CCOC(C(=O)Nc2ccccc2)C1 (stereo unspecified)	16.83	11.27
c1coc(-c2noc(CN3CCc4c(ncn4C4CC4)C3)n2)c1	9.763	-4.269

Once more, the final 5:

- CC(C)NC(=O)NCCCOC1CCOCC1 | A: 18.09%; B: 21.17%
- COc1c(CNCc2cccc(CN3CCOCC3)c2)c(C)nn1C | A: 9.091%; B: -4.733%
- Cn1nc(C2CCN(C(=O)c3cnccn3)C2)cc1CCO (stereo unspecified) | A: 13.65%; B: -6.125%
- CN(C)c1ncccc1CN1CCOC(C(=O)Nc2ccccc2)C1 (stereo unspecified) | A: 16.83%; B: 11.27%
- c1coc(-c2noc(CN3CCc4c(ncn4C4CC4)C3)n2)c1 | A: 9.763%; B: -4.269%